Measured values: patent US20100041694A1, “AGRICULTURAL COMPOSITION FOR CONTROLLING OR PREVENTING PLANT DISEASES CAUSED BY PLANT PATHOGENIC MICROBES” (Sumitomo Chemical Company, Limited, priority 2007, published 2010)
Some entries share one result that the patent states for a list of compounds.

Assays:
Assay type in all cases: in vivo
Sclerotinia sclerotiorum = assay: Preventing infection by cucumber Sclerotinia rot, foliage application; details: cucumber (Sagami-Hanjiro), flowable formulation 500 ppm foliage application, then inoculation; 18° C. high humidity 4 days
[1] = tested on: Verticillium albo-atrum, V. dahliae, V. nigrescens; assay: Potato blue stem, soil irrigation treatment; details: potato (Danshaku) in contaminated soil, 10 mg compound per pot by soil irrigation, 2 months
Fusarium oxysporum = assay: Preventing infection by tomato wilt by soil treatment (irrigation); details: tomato (Patio) in contaminated soil, 10 mg compound per pot by soil irrigation, 1 month
Gibberella fujikuroi = assay: Rice bakanae disease, seed treatment; details: contaminated unhulled rice, seed treatment 200 g compound per 100 kg seeds, 1 month
Gaeumannomyces graminis = assay: Malt damping off, seed treatment; details: contaminated malt seeds, seed treatment 200 g compound per 100 kg seeds, 1 month

Row | SMILES | infected areas of treated plants relative to infected areas of untreated plants (Sclerotinia sclerotiorum) [%] | blotches in treated plants [1] | growth of treated plants [1] | blotches in treated plants (Fusarium oxysporum) | growth of treated plants (Fusarium oxysporum) | growth of treated plants (Gibberella fujikuroi) | growth of treated plants (Gaeumannomyces graminis)
1 | O=C(NCc1ccc(Oc2ccccc2)cc1)c1ccc2ncccc2n1 [Compound 209] | ≤ 10 | no blotches are found | favorably grow at a level equivalent to that of plants that grow in noncontaminated soil | no blotches are found | favorably grow at a level equivalent to that of plants that grow have in noncontaminated soil | favorably grow at a level equivalent to that of plants that have grown from noncontaminated unhulled rice | favorably grow at a level equivalent to that of plants that grow from noncontaminated seeds
2 | Cc1ccccc1Oc1cccc(CNC(=O)c2ccc3ncsc3c2)c1 [Compound 210] | ≤ 10 | no blotches are found | favorably grow at a level equivalent to that of plants that grow in noncontaminated soil | no blotches are found | favorably grow at a level equivalent to that of plants that grow have in noncontaminated soil | favorably grow at a level equivalent to that of plants that have grown from noncontaminated unhulled rice | favorably grow at a level equivalent to that of plants that grow from noncontaminated seeds
3 | Cc1cccc(Oc2cccc(CNC(=O)c3ccc4ncsc4c3)c2)c1 [Compound 212] | ≤ 10 | no blotches are found | favorably grow at a level equivalent to that of plants that grow in noncontaminated soil | no blotches are found | favorably grow at a level equivalent to that of plants that grow have in noncontaminated soil | favorably grow at a level equivalent to that of plants that have grown from noncontaminated unhulled rice | favorably grow at a level equivalent to that of plants that grow from noncontaminated seeds
4 | Cc1ccc(Oc2cccc(CNC(=O)c3ccc4ncsc4c3)c2)cc1 [Compound 213] | ≤ 10 | no blotches are found | favorably grow at a level equivalent to that of plants that grow in noncontaminated soil | no blotches are found | favorably grow at a level equivalent to that of plants that grow have in noncontaminated soil | favorably grow at a level equivalent to that of plants that have grown from noncontaminated unhulled rice | favorably grow at a level equivalent to that of plants that grow from noncontaminated seeds
5 | CC(C)CCOc1cccc(CNC(=O)c2ccc3ncsc3c2)c1F [Compound 214] | ≤ 10 | no blotches are found | favorably grow at a level equivalent to that of plants that grow in noncontaminated soil | no blotches are found | favorably grow at a level equivalent to that of plants that grow have in noncontaminated soil | favorably grow at a level equivalent to that of plants that have grown from noncontaminated unhulled rice | favorably grow at a level equivalent to that of plants that grow from noncontaminated seeds
6 | CCCc1cccc(CNC(=O)c2ccc3ncsc3c2)c1F [Compound 215] | ≤ 10 | no blotches are found | favorably grow at a level equivalent to that of plants that grow in noncontaminated soil | no blotches are found | favorably grow at a level equivalent to that of plants that grow have in noncontaminated soil | favorably grow at a level equivalent to that of plants that have grown from noncontaminated unhulled rice | favorably grow at a level equivalent to that of plants that grow from noncontaminated seeds
7 | CCCCc1cccc(CNC(=O)c2ccc3ncsc3c2)c1F [Compound 216] | ≤ 10 | no blotches are found | favorably grow at a level equivalent to that of plants that grow in noncontaminated soil | no blotches are found | favorably grow at a level equivalent to that of plants that grow have in noncontaminated soil | favorably grow at a level equivalent to that of plants that have grown from noncontaminated unhulled rice | favorably grow at a level equivalent to that of plants that grow from noncontaminated seeds
8 | CCCCCc1cccc(CNC(=O)c2ccc3ncsc3c2)c1F [Compound 217] | ≤ 10 | no blotches are found | favorably grow at a level equivalent to that of plants that grow in noncontaminated soil | no blotches are found | favorably grow at a level equivalent to that of plants that grow have in noncontaminated soil | favorably grow at a level equivalent to that of plants that have grown from noncontaminated unhulled rice | favorably grow at a level equivalent to that of plants that grow from noncontaminated seeds
9 | CCCCCCc1cccc(CNC(=O)c2ccc3ncsc3c2)c1F [Compound 218] | ≤ 10 | no blotches are found | favorably grow at a level equivalent to that of plants that grow in noncontaminated soil | no blotches are found | favorably grow at a level equivalent to that of plants that grow have in noncontaminated soil | favorably grow at a level equivalent to that of plants that have grown from noncontaminated unhulled rice | favorably grow at a level equivalent to that of plants that grow from noncontaminated seeds
10 | CC(C)=CCOc1cccc(CNC(=O)c2ccc3ncsc3c2)c1F [Compound 220] | ≤ 10 | no blotches are found | favorably grow at a level equivalent to that of plants that grow in noncontaminated soil | no blotches are found | favorably grow at a level equivalent to that of plants that grow have in noncontaminated soil | favorably grow at a level equivalent to that of plants that have grown from noncontaminated unhulled rice | favorably grow at a level equivalent to that of plants that grow from noncontaminated seeds
11 | CC(C)COc1cccc(CNC(=O)c2ccc3ncsc3c2)c1F [Compound 221] | ≤ 10 | no blotches are found | favorably grow at a level equivalent to that of plants that grow in noncontaminated soil | no blotches are found | favorably grow at a level equivalent to that of plants that grow have in noncontaminated soil | favorably grow at a level equivalent to that of plants that have grown from noncontaminated unhulled rice | favorably grow at a level equivalent to that of plants that grow from noncontaminated seeds
12 | COc1ccc(CC(=O)Nc2ccc3ncsc3c2)cc1 [Compound 222] | ≤ 10 | no blotches are found | favorably grow at a level equivalent to that of plants that grow in noncontaminated soil | no blotches are found | favorably grow at a level equivalent to that of plants that grow have in noncontaminated soil | favorably grow at a level equivalent to that of plants that have grown from noncontaminated unhulled rice | favorably grow at a level equivalent to that of plants that grow from noncontaminated seeds
13 | Cc1cccc(CC(=O)Nc2ccc3ncsc3c2)c1 [Compound 223] | ≤ 10 | no blotches are found | favorably grow at a level equivalent to that of plants that grow in noncontaminated soil | no blotches are found | favorably grow at a level equivalent to that of plants that grow have in noncontaminated soil | favorably grow at a level equivalent to that of plants that have grown from noncontaminated unhulled rice | favorably grow at a level equivalent to that of plants that grow from noncontaminated seeds
14 | Cc1ccc(CC(=O)Nc2ccc3ncsc3c2)cc1 [Compound 224] | ≤ 10 | no blotches are found | favorably grow at a level equivalent to that of plants that grow in noncontaminated soil | no blotches are found | favorably grow at a level equivalent to that of plants that grow have in noncontaminated soil | favorably grow at a level equivalent to that of plants that have grown from noncontaminated unhulled rice | favorably grow at a level equivalent to that of plants that grow from noncontaminated seeds
